## Results from one PubChem assay

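Genome-wide siRNA knockdown in TC32 Ewing sarcoma cells, comparing luciferase light from an NR0B1-promoter reporter with a CMV-promoter reporter 48 hours after transfection. Each siRNA was applied at 20 nM. A z-score of the log NR0B1-over-CMV signal, less the median of siRNAs with the same seed; more negative means a stronger specific loss of the NR0B1 reporter.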

The strongest results of the screen are mostly left out here. Sequences are the guide (antisense) strand, without overhang.

siRNA	gene	seed-corrected z-score
UAGAGUAUGCGAGUGGUGG	PRRC1	-0.5721
UUCCUAAUGAGGUCCCGUC	LOC100288842	-0.6084
UAAACCACUGAGAUGAUGU	RNASE8	0.6494
UGUAUAGUAAGGUUAGAGC	ZNF253	-1.014
UAAGACAACCGCUUGAGGC	TSEN54	-0.9416
UGCUUGGUCACACUGUCCG	TMEM240	0.04247
UUCCGGUUACUCUUCUGUC	SIGLEC7	0.1616
UGUUUGUCCACAACACCGC	PTPRB	-0.5156
UGCGGGUUCAUGGUCUCCU	TMEM184B	-1.254
UCUGGAGCAACAAAUUCCG	DAPK2	1.024
UUGGUAAUCACUUUAUUCU	TSPY3	-0.3564
UCAGCUAUGAAGACAUUGG	DUSP27	-1.488
UCGGUUUCCAAUGCAUUCC	SLMAP	0.6311
ACCUGGAUCAAUGAUAGCC	RPL30	-1.371
UCUGGUGAAAGAUCCCAUC	NLN	0.2296
UUUGCGCACAUCGUUUUGC	CCDC146	-0.2334
UACCUUGUAGCUGCCAUAG	C3orf84	0.2462
UUCCGUUCUCUCUUCAAGG	MYH14	0.1145
AACGGUGUGACAAUCCUGC	SPSB4	0.8476
UAGCGGAACUCUGUCCUGC	UROC1	0.1091
UCAGUGAAUAGGGUUUAUG	LOC642426	-0.3264
UUCGUUAGCAGAAUCUGUG	SPATS2L	-0.1435
AUCGUAUUCGUAGCGGCGG	ALKBH7	0.07543
UCUCUUAUCUGAGCUAUGG	MTERF2	0.3377
UUGGUCUACAUCACACAGC	ZNF580	-0.1618
AUGAGAGUGAAUGACCUCG	HAPLN2	0.8521
UUCGGUUCUCACUAUUAUC	KCNJ2-AS1	0.487
UAUGUUUCCUGUUGUGGAC	ZBTB48	-0.4595
UCUAAGUAGUCGGUGUUGG	ATG4C	0.1012
UUAACUUCCACGUGAUUGG	APOBEC1	0.5185
UUCUGAUUUGAUGUGCUCU	PAX2	-1.182
AUAGGAUAGUGGAAUAUGC	LNPEP	0.2878
UUUCUAUCUAAUAAGAGCC	TSPAN19	0.04462
UCACCGUUAACUGUACCUG	TET1	-0.6513
UAUGAUGCCGGGAAGAAUC	GUCY1A3	0.2624
AGGAGUAAUAGCAAUUCCC	DEFA1	-1.252
UUUGUUUAGGAUACAACUC	METTL15	1.877
UAAUCUAUAUCUAUACUGU	PLEKHA8	0.3307
UACCUUUACAUUCGUCUUC	SMC6	-1.322
UUCAUUCUUAGAUGGUGGG	OR11G2	0.03023
UUUGCGUUUACGACAGUUC	NFE2L3	-0.2084
AAAGUACCAGUCACCGUCG	LGI3	0.3485
AACAUUCGCACAGAGCUGC	FBLN5	0.358

3 of the entries, repeated:

siRNA	gene	seed-corrected z-score
UUCCUAAUGAGGUCCCGUC	LOC100288842	-0.6084
UGCUUGGUCACACUGUCCG	TMEM240	0.04247
UUUGCGUUUACGACAGUUC	NFE2L3	-0.2084

The results are deposited in PubChem (AID1159506; NCATS, 2015).